Experimental data: US20250381223A1
Results are given in words; binding and its absence hold for the method and conditions named. Some entries that bind do so weakly or less than the wild type.

By UniProt entry, the sequences of proteins in these tests, tags left out. Residues count along the entry.
UniProt P25942, residues 21-193: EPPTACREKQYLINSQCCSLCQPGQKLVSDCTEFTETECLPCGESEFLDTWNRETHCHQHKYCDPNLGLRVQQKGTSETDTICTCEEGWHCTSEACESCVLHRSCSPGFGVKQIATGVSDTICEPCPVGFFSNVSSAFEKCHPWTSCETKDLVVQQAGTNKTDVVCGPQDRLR
UniProt P10747, residues 19-152: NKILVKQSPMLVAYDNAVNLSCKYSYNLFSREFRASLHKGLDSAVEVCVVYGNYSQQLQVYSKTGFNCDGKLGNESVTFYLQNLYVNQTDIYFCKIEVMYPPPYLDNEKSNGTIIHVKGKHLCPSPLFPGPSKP

Columns and labels:
[1] = target: CD40-Fc (not stated for this staining reagent (paragraph 357 names a recombinant human CD40-Fc for the phage screening)) (UniProt P25942); assay: flow cytometry, lentivirus-transduced T cells, CD40-Fc 2 µg/mL + PE-anti-Fc
[2] = target: CD40-Fc (not stated for this staining reagent (paragraph 357 names a recombinant human CD40-Fc for the phage screening)) (UniProt P25942); assay: flow cytometry of T cells expressing the diabody, CD40-Fc + PE-anti-Fc
[3] = target: CD40-Fc (not stated for this staining reagent (paragraph 357 names a recombinant human CD40-Fc for the phage screening)) (UniProt P25942); assay: flow cytometry of T cells expressing new A40C28, CD40-Fc + PE-anti-Fc
[4] = target: CD40 (analyte of the SPR assay) (UniProt P25942); assay: SPR (Biacore 2000)
[5] = target: CD28 (detection antigen of the BLI assay) (human) (UniProt P10747); assay: BLI (GATOR)

B1: 5.17 (bispecific antibody)
single chain, scFv-G4S-scFv: QVQLVQSGAEVKKPGSSVKVSCKASGGTFSSYAISWVRQAPGQGLEWMGMINPSGGTTSYAQKFQGRVTMTRDTSTSTVYMELSSLRPEDTAVYYCARGFRMDQWGQGTLVTVSSGGGGSGGGGSGGGGSQSALTQPPSASGSPGQSVTISCTGTSSDVGAYNFVSWYQQHPGNAPKLIIYDVRKRPSGIPDRFSASKSGNTASLTVSGLQADDEADYYCSSYAGNNEMVFGGGTKLTVLGGGGSQVKLQESGPGLVKPSETLSITCTVSGFSLSDYGVHWVRQSPGKGLEWLGVIWAGGGTNYNSALMSRKTISKDNSKSQVFLKMSSLTAADTAVYYCARDKGYSYYYSMDYWGQGTTVTVSSGGGGSGGGGSGGGGSDIQLTQSPSSLSVSVGDRVTISCRASESVEYYVTSLMQWYQQKPGQAPKLLIFAASNVESGVPSRFSGSGSGTNFTLTISSVQEEDFAMYFCQQSRKVPYTFGGGTKLEIK
binding [1]: binds
binding [2]: binds

B2: A40C2828 (protein)
membrane fusion protein with an anti-CD40 antibody part: QVQLVQSGAEVKKPGASVKVSCTASGFNIKDYYVHWVKQAPGQGLEWMGRIDPEDGDSKYAPKFQGKATMTADTSTSTVYMELSSLRSEDTAVYYCTTSYYVGTYGYWGQGTLVTVSSGGGGSGGGGSGGGGSDIQMTQSPSSLSASVGDRVTITCSASSSVSYMLWFQQKPGKAPKLLIYSTSNLASGVPSRFSGSGSGTDFTLTISSLQPEDFATYYCQQRTFYPYTFGGGTKVEIKRTASIEVMYPPPYLDNEKSNGTIIHVKGKHLCPSPLFPGPSKPFWVLVVVGGVLACYSLLVTVAFIIFWVRSKRSRLLHSDYMNMTPRRPGPTRKHYQPYAPPRDFAAYRS
binding [3]: binds
binding [1]: binds

B3: 4052.17 (antibody, V domains shown)
VH: QVQLVQSGAEVKKPGSSVKVSCKASGGTFSSYAISWVRQAPGQGLEWMGMINPSGGTTSYAQKFQGRVTMTRDTSTSTVYMELSSLRPEDTAVYYCARGFRMDQWGQGTLVTVSS
VL: QSALTQPPSASGSPGQSVTISCTGTSSDVGAYNFVSWYQQHPGNAPKLIIYDVRKRPSGIPDRFSASKSGNTASLTVSGLQADDEADYYCSSYAGNNEMVFGGGTKLTVL
binding [4]: binds

B4: huVH1huVL1 (antibody, human IgG1, kappa, V domains shown)
VH: QVKLQESGPGLVKPSETLSITCTVSGFSLSDYGVHWVRQSPGKGLEWLGVIWAGGGTNYNSALMSRKTISKDNSKSQVFLKMSSLTAADTAVYYCARDKGYSYYYSMDYWGQGTTVTVSS
VL: DIQLTQSPSSLSVSVGDRVTISCRASESVEYYVTSLMQWYQQKPGQAPKLLIFAASNVESGVPSRFSGSGSGTNFTLTISSVQEEDFAMYFCQQSRKVPYTFGGGTKLEIKR
binding [5]: binds
